Test results published in patent US8471061B2 (priority 2004, dated 2013).
Where two headings read alike, the source gives them in different places. Further values from the same series stand in other lists.

Test system: female rats (Sprague-Dawley CD species)
Details: 300 mg/kg oral, per animal
Method: This test was carried out in accordance with the OECD Guideline No. 423 “Acute Oral Toxicity-Acute Toxicity Grading Method” (adopted on Dec. 17, 2001). Fasted female rats (Sprague-Dawley CD species) of 3 animals per group were treated with 5-aminolevulinic acid phosphate at a dose of 300 mg per kg body weight. In addition, other fasted female rats of two or more groups were treated at a dose of 2000 mg per kg body weight. They were observed after the administration continuously for 2 weeks.

Measured: Dead animals

NCC(=O)CCC(=O)O.O=P(O)(O)O [5-aminolevulinic acid phosphate, 5-aminolevulinic Acid Phosphate]
0: 0.5 hour after administration | 1 hour after administration | 2 hour after administration | 4 hour after administration | day 1 after administration | day 2 after administration | day 3 after administration | day 4 after administration | day 5 after administration | day 6 after administration | day 7 after administration | day 8 after administration | day 9 after administration | day 10 after administration | day 11 after administration | day 12 after administration | day 13 after administration | day 14 after administration
